From patent US9232788B2, “Fumigation methods” (Honeywell International Inc., priority 2011, dated 2016)

Assay: Atmospheric lifetime, global warming potential and ozone depletion potential
Details: factor relative to carbon dioxide (= 1)

Compound | GWP
FC(F)=C(F)C(F)(F)F [HFP, hexafluoropropene] | about 0.25
FC(F)=CC(F)(F)F [1225zc, 1,1,3,3,3-pentafluoropropene] | less than 1
